# Source: PubChem BioAssay AID540276 (National Center for Advancing Translational Sciences (NCATS), 2011)
# Several values for one entry are separate records, joined by “and”; a condition that tells them apart may be missing. Identical values can stand only once. Screen size: about 300,000 compounds; about 5,400 (1.8%) were called active. The shares of active, inactive and inconclusive entries below differ from those in the screen. Calls come from the whole dose curve; tested in HEK293 cells. A potency beside an inconclusive call is a rough fit, not a confirmed value.
# Test: qHTS for inhibitors of binding or entry into cells for Marburg Virus
# Details: Marburg virus pseudotyped entry inhibition, cell reporter; activity change, negative = inhibition: at 37.8 µM (top of the series) unless noted
# % is set by controls: 0 for no effect and ±100 for the full control effect; potency is the fitted concentration of half-maximal effect.
SMILES,Potency,"activity change, negative = inhibition"
C=CCNc1nc(N)c(C(=C(C#N)C#N)c2ccc(Br)cc2)s1,"inconclusive: 11.2 µM [inhibitor, partial curve, poor fit]",–
Cc1ccc(C(=O)NCC(=O)N2CCCCCC2)cc1,"inconclusive: 7.08 µM [activator, partial curve, poor fit]",–
CC(C)(C(=O)O)c1ccc(C(O)CCCN2CCC(C(O)(c3ccccc3)c3ccccc3)CC2)cc1 (stereo unspecified),"inactive and inconclusive: 6.31 µM [activator, single point]",–
CC1CCN(c2ccccc2NC(=O)c2ccc(N3CCOCC3)c([N+](=O)[O-])c2)CC1,"inconclusive: 29.1 µM [inhibitor, single point]",–
CCOC(=O)c1oc2cccc(O)c2c1C,"inconclusive: 20.6 µM [activator, single point]",–
Cc1cccc(N2CCN(C(=O)[C@H](C)N3C(=O)C4CC=CCC4C3=O)CC2)c1C (stereo partly specified),"inconclusive: 1.58 µM [inhibitor, full curve, poor fit]",–
Cc1cccc(-c2nc3ccccc3n3c(-c4ccccc4)c4c(=O)n(C)c(=O)n(C)c4c23)c1,"inconclusive: 35.5 µM [activator, partial curve, poor fit]",–
Cc1cc(=O)oc2cc(OCC(=O)Nc3cccc(S(=O)(=O)N(C)C)c3)ccc12,"inconclusive: 1.41 µM [activator, full curve]",–
CCCOC(=O)Cc1c(O)c2ccccc2[nH]c1=O,"inconclusive: 35.5 µM [activator, single point]",–
CCn1c(SCC(=O)Nc2ccccc2-c2ccccc2)nnc1-c1ccoc1C,"inconclusive: 10 µM [inhibitor, single point]",–
O=C1Nc2ccc(Br)cc2C1=C1CCCCC1,"inconclusive: 1.12 µM [inhibitor, partial curve, poor fit]",–
Cc1ccc(C)c(-c2csc(N/N=C/c3ccco3)n2)c1,active: 5.01 µM,–
O=S(=O)(c1ccc(OCC(O)CN2CCC(Cc3ccccc3)CC2)cc1)N1CCOCC1 (stereo unspecified),"inconclusive: 29.1 µM [inhibitor, single point]",–
CC(=O)N(CCC(c1ccccc1)c1ccco1)Cc1cccs1 (stereo unspecified),–,inactive: -21.6%
Cc1nc2ccccn2c1C(=O)NNC(=S)Nc1ccc(Cl)cc1,–,inactive: -18.2%
O=S(=O)(Nc1ccc(Cc2ccncc2)cc1)c1ccc(Br)s1,"inconclusive: 8.2 µM [inhibitor, full curve, poor fit]",–
COc1cccc(-c2nc(N3CCCC3)c3ccccc3n2)c1O,–,inactive: -10.4% [at 46.1 µM]
O=C(Cc1cccc2ccccc12)Nc1ccc(OC(F)F)c(Cl)c1,"inconclusive: 0.178 µM [inhibitor, single point]",–
COc1ccc2[nH]cc(CCCN3C(=O)c4ccccc4C3=O)c2c1,"inconclusive: 28.2 µM [inhibitor, single point]",–
CCOc1ccc(C(CC(=O)O)NC(=O)C23CC4CC(CC(C4)C2)C3)cc1OC (stereo unspecified),"inconclusive: 0.891 µM [activator, partial curve, poor fit]",–
O=C(COC(=O)c1cc(Br)ccc1O)Nc1cccnc1Cl,–,inactive: 27.4%
CC(C)(C)C1=C(C#N)C(c2cccnc2)C(C#N)=C(N)O1 (stereo unspecified),"inconclusive: 0.112 µM [activator, full curve, poor fit]",–

SMILES,Potency,"activity change, negative = inhibition"
CCOC(=O)CNC(c1ccccc1)c1cc(Br)ccc1NC(C)=O (stereo unspecified),"inconclusive: 17.8 µM [inhibitor, partial curve, poor fit]",–
CCOC(=O)C1=C(C)NC(C)=C(C(=O)OCC)C1/C=C/c1ccccc1,"inconclusive: 10.3 µM [inhibitor, partial curve, poor fit]",–
CCN(CC)CCN=C1CCCc2ccccc2N1,"inconclusive: 20 µM [inhibitor, single point]",–
CC(=O)c1ccc(N2CCN(CC(=O)Nc3ccccc3N3CCOCC3)CC2)cc1,"inconclusive: 14.1 µM [inhibitor, partial curve, poor fit]",–
Cc1cc(NC(=O)CCC(=O)N(c2ccc(F)cc2)C(C(=O)NC2CCCC2)c2ccccc2)no1 (stereo unspecified),"inconclusive: 0.291 µM [inhibitor, full curve]",–
COc1cc(OC)cc(-c2nc3cc(C)ccc3o2)c1,"inconclusive: 2.06 µM [activator, partial curve]",–
CCOC(=O)c1cnc2ccc(OC)cc2c1Nc1ccc(N2CCN(C)CC2)cc1,"inconclusive: 11.2 µM [inhibitor, partial curve, poor fit]",–
Cc1ccc(SCC(=O)n2nc(C)cc2C)cc1,"inconclusive: 5.62 µM [inhibitor, single point]",–
CCOCCCn1c(=NC(=O)c2cccs2)c(C#N)cc2c(=O)n3ccccc3nc21,–,inactive: -5.99%
c1ccc(N2CCN(c3ccccc3)C2c2cccs2)cc1,"inconclusive: 0.116 µM [activator, full curve, poor fit]",–
Cc1cccc(C)c1NC(=O)CN(C)C(=O)c1ccccc1SCC(=O)N1CCCC1,–,inactive: -29.9%
O=c1[nH]ncc(N2CCCCC2)c1Cl,–,inactive: 13.8%
COC(=O)c1cc(NC(=O)/C=C/c2ccc3c(c2)OCO3)cc(C(=O)OC)c1,"inconclusive: 18.3 µM [inhibitor, partial curve, poor fit]",–
COCc1c(C#N)c(NCc2cc(OC)c(OC)c(OC)c2)nc(C)c1[N+](=O)[O-],"inconclusive: 10 µM [inhibitor, partial curve, poor fit]",–
CC(C)CC(C(=O)Nc1oc(-c2ccco2)c(-c2ccco2)c1C#N)N1C(=O)c2ccccc2C1=O (stereo unspecified),inactive,–
COc1cc(CNCCc2ccc3c(c2)OCO3)cc(OC)c1OC,"inconclusive: 0.891 µM [inhibitor, full curve, poor fit]",–
CN(C)/C=C(/C(=O)c1ccc(Cl)c(Cl)c1)S(C)(=O)=O,–,inactive: -5.15% [at 46.1 µM]
CCN(CC)S(=O)(=O)c1cc(NC(=O)C(C)N2CCc3ccccc32)ccc1C (stereo unspecified),"inconclusive: 35.5 µM [inhibitor, partial curve, poor fit]",–
CCN(CC)S(=O)(=O)c1cc(NC(=O)c2ccc(-n3cncn3)c([N+](=O)[O-])c2)ccc1C,"inconclusive: 11.2 µM [inhibitor, single point]",–
O=C1C2C(C(=O)N1CCN1CCN(Cc3ccc([N+](=O)[O-])cc3)CC1)[C@H]1C=C[C@@H]2C1 (stereo partly specified),–,inactive: -25.7%
NCCCC(=O)N1c2ccccc2Sc2ccc(Cl)cc21,"inconclusive: 35.5 µM [inhibitor, single point]",–
COc1cccc(NC(=O)CCP(C)(=O)O)c1,"inconclusive: 5.01 µM [activator, partial curve, poor fit]",–

SMILES,Potency,"activity change, negative = inhibition"
Cc1[nH]c2ccccc2c1SCCNC(=O)c1ccccc1F,"inconclusive: 35.5 µM [inhibitor, single point]",–
CCN(c1ccccc1)S(=O)(=O)c1ccc(N)c(OC)c1,active: 3.16 µM,–
Nc1c(C(=O)CCC(=O)O)oc2ccc(Cl)cc12,–,inactive: -1.61%
O=C(N/N=C/c1cccs1)c1ccc2c(c1)OCO2,"inconclusive: 14.1 µM [inhibitor, single point]",–
COc1ccc2c(Cl)c(C(=O)N/N=C/c3ccncc3)sc2c1,–,inactive: -18.6% [at 46.1 µM]
Cc1cccc2cc(/C=N/NC(=O)[C@H]3C[C@@H]3c3ccccc3)c(Cl)nc12,–,inactive: 8.34% [at 46.1 µM]
CCC(Sc1nc2ccccc2c(=O)n1CCN1CCOCC1)C(=O)NCc1cccnc1 (stereo unspecified),–,inactive: 4.34%
Cc1c(C(=O)Nc2cccc(Cl)c2)oc2ccc(S(=O)(=O)N3CCC4(CC3)OCCO4)cc12,"inconclusive: 6.51 µM [inhibitor, full curve, poor fit]",–
Cc1cc(C)cc(OCCNC(=O)c2cc(S(=O)(=O)N3CCOCC3)ccc2F)c1,"inconclusive: 35.5 µM [inhibitor, partial curve, poor fit]",–
Cc1ccccc1NC(=S)NC(=O)/C=C/c1ccco1,–,inactive: 0%
CC(=O)OC[C@H]1O[C@H](CCO/N=C(\C)CCN2CCc3nc(-c4ccccc4)c(-c4ccccc4)cc3C2)C=C[C@@H]1OC(C)=O,"inconclusive: 4.73 µM [inhibitor, single point]",–
O=C1CCNc2ccc(-c3ccccc3)cc21,–,inactive: 1.76%
Cc1cccc(NC(=O)CN2CCN(C(=O)c3ccc(-c4nc5ccccc5s4)o3)CC2)c1C,"inconclusive: 35.5 µM [inhibitor, single point]",–
CCOC(=O)CCc1c(C)nc(SCCCn2c(=O)[nH]c3ccccc32)c(C#N)c1C,"inconclusive: 0.206 µM [inhibitor, full curve]",–
CCn1c(=O)cc(SCC(=O)N2CCN(c3ccccc3F)CC2)c2ccccc21,"inactive and inconclusive: 9.2 µM [activator, partial curve, poor fit]",–
CCOCCCN(C(=O)c1snc(C(N)=O)c1N)C(C(=O)NC(C)(C)C)c1ccc(Cl)cc1 (stereo unspecified),"inconclusive: 17.8 µM [inhibitor, single point]",–
O=C(CCCc1nc2ccccc2s1)N1CCN(c2ccccc2F)CC1,–,inactive: -5.05%
Cc1ccc([N+](=O)[O-])cc1S(=O)(=O)Nc1ccc(OCC(=O)N2CCOCC2)cc1,"inconclusive: 35.5 µM [inhibitor, single point]",–
CC(NC(=O)c1ccco1)C(c1cccs1)N1CCN(c2ccccc2F)CC1 (stereo unspecified),"inconclusive: 32.6 µM [inhibitor, single point]",–
O=C(NCCCn1ccnc1)c1ccc(Br)cc1,–,inactive: -1.85% [at 46.1 µM]
Cc1cccc(Cn2nnc3c(=O)[nH]c(C4CCN(C(=O)c5ccc(F)cc5)CC4)nc32)c1,–,inactive: -10.6% [at 46.1 µM]
CC(C)NCC(O)c1ccc(C2CCCC2)cc1 (stereo unspecified),"inconclusive: 16.4 µM [inhibitor, single point]",–
